Where “and” joins values, the source holds several entries; their conditions need not be identical. Equal entries are not always repeated. The list shows a part of the results. For some assays here: The source does not settle which construct or isoform was used.

Sequences of proteins named here, by UniProt entry; tags and fusion partners are left off. A change or cut given only in a name is not applied to a line headed by its entry.
UniProt Q8IXJ9: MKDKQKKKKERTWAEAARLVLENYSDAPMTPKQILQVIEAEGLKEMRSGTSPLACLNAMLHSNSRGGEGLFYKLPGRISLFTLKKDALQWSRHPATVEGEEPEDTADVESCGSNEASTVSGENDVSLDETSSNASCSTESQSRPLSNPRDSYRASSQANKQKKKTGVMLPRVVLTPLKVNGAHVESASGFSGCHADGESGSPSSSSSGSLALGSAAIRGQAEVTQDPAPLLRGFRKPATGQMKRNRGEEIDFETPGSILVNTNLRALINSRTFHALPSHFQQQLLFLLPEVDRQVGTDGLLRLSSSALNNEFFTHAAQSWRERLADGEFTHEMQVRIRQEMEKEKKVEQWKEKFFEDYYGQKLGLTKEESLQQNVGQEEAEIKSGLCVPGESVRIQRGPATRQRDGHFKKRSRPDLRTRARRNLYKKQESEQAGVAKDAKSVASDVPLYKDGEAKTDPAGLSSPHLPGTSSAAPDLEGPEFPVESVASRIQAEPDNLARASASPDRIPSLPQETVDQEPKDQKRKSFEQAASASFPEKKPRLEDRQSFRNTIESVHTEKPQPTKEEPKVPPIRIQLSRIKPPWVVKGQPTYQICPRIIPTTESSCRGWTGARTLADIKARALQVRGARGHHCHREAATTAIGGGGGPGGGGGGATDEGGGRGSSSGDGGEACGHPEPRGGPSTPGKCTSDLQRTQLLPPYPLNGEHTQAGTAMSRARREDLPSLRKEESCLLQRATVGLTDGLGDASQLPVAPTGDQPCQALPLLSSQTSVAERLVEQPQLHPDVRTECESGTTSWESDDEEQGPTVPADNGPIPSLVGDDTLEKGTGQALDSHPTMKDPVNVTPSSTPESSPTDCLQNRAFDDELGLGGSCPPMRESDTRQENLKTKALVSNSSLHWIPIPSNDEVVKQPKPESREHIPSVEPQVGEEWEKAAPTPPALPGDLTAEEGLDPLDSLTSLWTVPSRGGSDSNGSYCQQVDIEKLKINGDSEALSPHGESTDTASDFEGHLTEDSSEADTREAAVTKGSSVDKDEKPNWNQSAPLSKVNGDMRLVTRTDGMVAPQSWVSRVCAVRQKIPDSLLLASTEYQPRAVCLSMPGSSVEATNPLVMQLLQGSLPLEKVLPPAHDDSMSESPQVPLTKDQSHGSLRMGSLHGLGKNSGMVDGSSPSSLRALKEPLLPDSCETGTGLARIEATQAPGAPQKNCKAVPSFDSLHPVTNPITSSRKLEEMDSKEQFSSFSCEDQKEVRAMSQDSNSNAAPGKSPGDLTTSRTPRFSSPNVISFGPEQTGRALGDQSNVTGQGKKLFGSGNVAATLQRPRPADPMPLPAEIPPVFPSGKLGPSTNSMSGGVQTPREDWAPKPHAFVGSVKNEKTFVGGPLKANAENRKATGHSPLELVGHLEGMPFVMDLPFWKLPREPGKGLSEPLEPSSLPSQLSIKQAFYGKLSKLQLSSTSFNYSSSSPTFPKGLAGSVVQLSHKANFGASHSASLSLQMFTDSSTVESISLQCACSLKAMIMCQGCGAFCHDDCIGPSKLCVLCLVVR

What all share (assay): protein microarray (ProtoArray v5.0), streptavidin-Alexa Fluor 647
What all share (details): 3'-biotin; 20 mM Tris (pH 7.5), 5 mM MgCl2, 100 mM KCl, 0.1% Tween-20, A/T-rich and random oligonucleotide blockers; temperature not stated; high values mean tight binding

Test [1] deals with ASAHL (human).
Test [2] has as its system ASB11 (human).
Test [3] concerns ASB13 (human).
Test [4] relates to ASB6 (human).
The subject of test [5] is ASB7 (human).
Test [6] has as its system ASF1A (human).
Test [7] concerns ASMTL (human).
The target of test [8] is T1, ASNS (UniProt P08243).
T1 sequence: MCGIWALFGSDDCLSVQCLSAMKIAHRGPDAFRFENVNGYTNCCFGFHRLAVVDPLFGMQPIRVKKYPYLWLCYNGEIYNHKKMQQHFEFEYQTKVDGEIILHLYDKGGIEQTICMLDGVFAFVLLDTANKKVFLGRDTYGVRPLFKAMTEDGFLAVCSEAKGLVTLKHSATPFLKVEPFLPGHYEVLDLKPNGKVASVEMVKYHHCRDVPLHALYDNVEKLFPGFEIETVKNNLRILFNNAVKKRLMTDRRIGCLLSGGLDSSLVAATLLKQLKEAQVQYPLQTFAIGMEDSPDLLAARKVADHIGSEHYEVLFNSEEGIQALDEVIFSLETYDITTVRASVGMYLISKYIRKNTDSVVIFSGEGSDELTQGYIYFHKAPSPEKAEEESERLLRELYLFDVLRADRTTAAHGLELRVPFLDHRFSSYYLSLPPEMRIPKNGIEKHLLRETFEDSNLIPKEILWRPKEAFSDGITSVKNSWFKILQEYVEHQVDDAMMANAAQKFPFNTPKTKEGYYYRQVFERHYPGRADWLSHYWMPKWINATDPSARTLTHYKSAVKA

For test [9], the system named is ASPH (human).
The target in test [10] is ASXL1 (UniProt Q8IXJ9).
Test [11] has as its system ATE1 (human).
Test [12] relates to ATF2 (human).
The test system of test [13] is ATF3 (human).
Test [14] deals with ATG10 (human).
The subject of test [15] is ATG12 (human).
Test [16] relates to ATG4A (human).
The subject of test [17] is ATG4D (human).
For test [18], the system named is ATG7 (human).
In test [19] the test system is ATP synthase-coupling factor 6, mitochondrial (human).
Test [20] deals with ATP-binding cassette sub-family G member 1 (human).

In the case of “GGGAGGCTGAGGCAGG [G4-1 biotinylated (PQS2)]”, the binding signal in test [1] is -0.256 z-score; in test [2] it was -0.351 z-score; in test [3] it was -0.272 z-score; in test [4], -0.337 z-score; in test [5], -0.245 z-score; in test [6], -0.303 z-score. The binding signal in test [7] is -0.356 z-score and -0.347 z-score; in test [8], -0.359 z-score; in [9], -0.303 z-score; in [10], 6.13 z-score; in [11], -0.295 z-score; in [12], -0.347 z-score. Further, the binding signal in [13] is -0.304 z-score; in test [14], -0.343 z-score; in test [15], -0.289 z-score; in [16], -0.367 z-score; in [17], -0.335 z-score; in test [18], -0.309 z-score. In addition, the binding signal in test [19] is -0.312 z-score; in [20], -0.264 z-score.

For the origin of these results see publication PMC5996148.
